Laboratory results: PubChem BioAssay AID1259308 (NCATS, 2017)
Assay: 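Genes whose loss raises luciferase production in HEK293 cells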 (primary screen). System: human HEK293 embryonic kidney cells stably expressing firefly luciferase (HEK-CMV-Luc2-Hygro). Reagents: single siRNA against human genes, 0.8 pmol siRNA per well. Timing: 72 h. Detection: 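Reporter luminescence and viable-cell signal on separate replicate plates, given as percent of non-targeting control and median/MAD z-scores, plus per-cell luciferase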. Scale: total luciferase, z-score: higher = more reporter protein produced. Hit rule: 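An siRNA counts as active if its total luciferase robust z-score exceeds 3; genes with two or more such siRNAs out of three were retested with fresh siRNAs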. Calls: active = raised luciferase; inactive = no rise.
The deposit covers about 59,000 reagents; shown is a random part of them. In the full data, about 1,510 (2.6%) got an active call. 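Calls use total luciferase alone and ignore viability, so some active siRNAs may act by altering cell number.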 Unmarked entries are inactive. The numbers tell different reagents against one gene apart. Further read-outs or replicates are left out here.

| Gene | siRNA no. | total luciferase, z-score |
| --- | --- | --- |
| OR10J5 (GeneID 127385) | 1 | 0.837 |
| OR10J5 (GeneID 127385) | 2 | -0.572 |
| OR10J5 (GeneID 127385) | 3 | -0.068 |
| DAO (GeneID 1610) | 1 | 0.523 |
| DAO (GeneID 1610) | 2 | -0.627 |
| DAO (GeneID 1610) | 3 | 0.0284 |
| ZNF474 (GeneID 133923) | 1 | -1.82 |
| ZNF474 (GeneID 133923) | 2 | 0.309 |
| ZNF474 (GeneID 133923) | 3 | -1.03 |
| SLA (GeneID 6503) | 1 | 1.8 |
| SLA (GeneID 6503) | 2 | 0.338 |
| SLA (GeneID 6503) | 3 | 3.53 (active) |
| TPD52 (GeneID 7163) | 1 | -0.471 |
| TPD52 (GeneID 7163) | 2 | -1.39 |
| TPD52 (GeneID 7163) | 3 | 0.341 |
| TMEM42 (GeneID 131616) | 1 | -0.231 |
| TMEM42 (GeneID 131616) | 2 | 0.282 |
| TMEM42 (GeneID 131616) | 3 | 0.578 |
| SH3BGRL (GeneID 6451) | 1 | 1.83 |
| SH3BGRL (GeneID 6451) | 2 | -0.129 |
| SH3BGRL (GeneID 6451) | 3 | -0.943 |
| SCCPDH (GeneID 51097) | 1 | 1.06 |
| SCCPDH (GeneID 51097) | 2 | -2.1 |
| SCCPDH (GeneID 51097) | 3 | -0.261 |

An excerpt from the list above, for reference:
| Gene | siRNA no. | total luciferase, z-score |
| --- | --- | --- |
| TPD52 (GeneID 7163) | 3 | 0.341 |
| TMEM42 (GeneID 131616) | 1 | -0.231 |
| TMEM42 (GeneID 131616) | 2 | 0.282 |
| TMEM42 (GeneID 131616) | 3 | 0.578 |

The listing continues.
| Gene | siRNA no. | total luciferase, z-score |
| --- | --- | --- |
| R3HDM2 (GeneID 22864) | 1 | -0.643 |
| R3HDM2 (GeneID 22864) | 2 | -0.19 |
| R3HDM2 (GeneID 22864) | 3 | 0.986 |
| SRARP (GeneID 149563) | 1 | 0.153 |
| SRARP (GeneID 149563) | 2 | 0.327 |
| SRARP (GeneID 149563) | 3 | -0.345 |
| ALX1 (GeneID 8092) | 1 | 0.768 |
| ALX1 (GeneID 8092) | 2 | -1.58 |
| ALX1 (GeneID 8092) | 3 | -1.39 |
| SMIM48 (GeneID 728392) | 1 | 2.17 |
| SMIM48 (GeneID 728392) | 2 | -0.483 |
| SMIM48 (GeneID 728392) | 3 | 1.09 |
| RBM47 (GeneID 54502) | 1 | 0.76 |
| RBM47 (GeneID 54502) | 2 | 1.65 |
| RBM47 (GeneID 54502) | 3 | 0.706 |
